PubChem BioAssay AID1224828 | NIAID – 2016

- Screen: 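Find genes required for NF-kappaB p65 moving into the nucleus after LPS in mouse macrophages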 (primary screen)
- Cells: mouse RAW264.7 G9 macrophage reporter cells (GFP-p65, Tnf promoter-mCherry)
- Knock-down reagent: siRNA pool against mouse genes, 100 nM
- Time to read-out: 2 days siRNA transfection, then 40 min LPS before fixation
- Conditions: LPS (Salmonella minnesota R595) at 10 ng/ml
- Measurement: 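Imaged p65 nuclear translocation ratio, normalised to the plate median, converted to robust z-scores and averaged across two replicates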
- Direction: p65 translocation robust z-score: higher = more nuclear NF-kappaB p65 after LPS than the plate median; nuclear/cytoplasmic p65 ratio: higher = more nuclear NF-kappaB p65
- Call rule: 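Called active when z exceeds 3.3 or falls under -1.56 (median of Tlr4 controls), giving activity score of at least 50; no calls for control wells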
- Meaning of the calls: active = hit (p65 shift raised or lowered); inactive = no clear change
The deposit covers about 17,000 reagents; shown is an unselected part. Of all reagents, 762 (4.5%) were called active. 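Active calls include both raised and lowered p65 entry, mostly lowered; wells with fewer than 50 cells lack a z-score.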 The raw values are shown without normalisation. A number with no mark means an inactive call.

| gene symbol | p65 translocation robust z-score | nuclear/cytoplasmic p65 ratio, rep 1 | nuclear/cytoplasmic p65 ratio, rep 2 | low cell count flag |
| --- | --- | --- | --- | --- |
| Hfm1 (helicase for meiosis 1) | -1.89 (active) | 1.25 | 1.26 | enough cells to score |
| Cstf1 (cleavage stimulation factor, 3' pre-RNA, subunit 1) | 1.14 | 1.72 | 1.99 | enough cells to score |
| Or5w1 (olfactory receptor family 5 subfamily W member 1) | 0.56 | 1.81 | 1.6 | enough cells to score |
| Fyb1 (FYN binding protein 1) | 0.05 | 1.8 | 1.31 | enough cells to score |
| Naxd (NAD(P)HX dehydratase) | -0.25 | 1.37 | 1.54 | enough cells to score |
| Prss29 (serine protease 29) | -0.5 | 1.5 | 1.35 | enough cells to score |
| Gp6 (glycoprotein 6 platelet) | 0.14 | 1.41 | 1.44 | enough cells to score |
| Ddo (D-aspartate oxidase) | 1.42 | 1.51 | 1.69 | enough cells to score |
| Syt3 (synaptotagmin III) | -0.32 | 1.32 | 1.19 | enough cells to score |
| Ipo5 (importin 5) | 1.12 | 1.58 | 1.57 | enough cells to score |
| Uhrf1 (ubiquitin-like, containing PHD and RING finger domains, 1) | 0.61 | 1.58 | 1.6 | enough cells to score |
| Vmn1r228 (vomeronasal 1 receptor 228) | – | 1.15 | 1.16 | fewer than 50 cells per well; well left out of scoring |
| 1700067P10Rik (RIKEN cDNA 1700067P10 gene) | -0.72 | 1.36 | 1.27 | enough cells to score |
| 5330430C04Rik (RIKEN cDNA 5330430C04 gene) | -0.9 | 1.11 | 1.49 | enough cells to score |
| Hpca (hippocalcin) | -0.6 | 1.67 | 1.47 | enough cells to score |
| Mon1a (MON1 homolog A, secretory traffciking associated) | – | 1.1 | 1.16 | fewer than 50 cells per well; well left out of scoring |
| Slc34a3 | – | 1.42 | 0.807 | fewer than 50 cells per well; well left out of scoring |
| Cox8b (cytochrome c oxidase subunit 8B) | -0.43 | 1.53 | 1.69 | enough cells to score |
| Rcan1 (regulator of calcineurin 1) | -2.24 (active) | 1.27 | 1.08 | enough cells to score |
| Pi16 (peptidase inhibitor 16) | 1.03 | 1.5 | 1.58 | enough cells to score |
| A630052C17Rik (RIKEN cDNA A630052C17 gene) | -0.57 | 1.26 | 1.49 | enough cells to score |
| Chst7 (carbohydrate sulfotransferase 7) | -0.44 | 1.57 | 1.66 | enough cells to score |
| Sntg2 (syntrophin, gamma 2) | -1.1 | 1.25 | 1.11 | enough cells to score |
| Kcnk7 (potassium channel, subfamily K, member 7) | 0.48 | 1.62 | 1.5 | enough cells to score |
| Nlrp4a (NLR family, pyrin domain containing 4A) | 2.61 | 1.85 | 1.66 | enough cells to score |
| Gstz1 | -0.49 | 1.34 | 1.34 | enough cells to score |
| Ano1 (anoctamin 1, calcium activated chloride channel) | -0.1 | 1.36 | 1.57 | enough cells to score |
| Plekhb2 (pleckstrin homology domain containing B2) | -0.34 | 1.35 | 1.17 | enough cells to score |
| Eif4a3 (eukaryotic translation initiation factor 4A3) | 0.5 | 1.64 | 1.62 | enough cells to score |
| Cep128 (centrosomal protein 128) | 0.9 | 1.42 | 1.64 | enough cells to score |
| Phkg2 (phosphorylase kinase, gamma 2 (testis)) | -0.5 | 1.67 | 1.31 | enough cells to score |
| Hnrnpk (heterogeneous nuclear ribonucleoprotein K) | 0.02 | 1.36 | 1.45 | enough cells to score |
| Eif3d (eukaryotic translation initiation factor 3, subunit D) | -1.17 | 1.33 | 1.2 | enough cells to score |
| Hus1b (HUS1 checkpoint clamp component B) | 0.75 | 1.51 | 1.5 | enough cells to score |
| Itga8 (integrin alpha 8) | 0.95 | 1.59 | 1.51 | enough cells to score |
| 4931403M11Rik (RIKEN cDNA 4931403M11 gene) | – | 1.4 | 1.45 | fewer than 50 cells per well; well left out of scoring |
| Krtap3-2 (keratin associated protein 3-2) | 0.06 | 1.47 | 1.52 | enough cells to score |
| Dimt1 (DIM1 rRNA methyltransferase and ribosome maturation factor) | -0.94 | 1.38 | 1.35 | enough cells to score |
| B4galnt2 (beta-1,4-N-acetyl-galactosaminyl transferase 2) | 1.11 | 1.74 | 1.45 | enough cells to score |
| Rhoc (ras homolog family member C) | -0.58 | 1.47 | 1.4 | enough cells to score |
| Rxfp2 (relaxin/insulin-like family peptide receptor 2) | -0.25 | 1.47 | 1.54 | enough cells to score |
| Lcn8 (lipocalin 8) | 1.08 | 1.49 | 1.79 | enough cells to score |
| Cert1 (ceramide transporter 1) | 0.41 | 1.75 | 1.44 | enough cells to score |
| Ihh (Indian hedgehog) | 0.85 | 1.48 | 1.55 | enough cells to score |
| Hmces (5-hydroxymethylcytosine (hmC) binding, ES cell specific) | -1.35 | 1.28 | 1.31 | enough cells to score |
| Fgfr4 (fibroblast growth factor receptor 4) | -0.83 | 1.6 | 1.28 | enough cells to score |
| Actn2 (actinin alpha 2) | -0.23 | 1.58 | 1.59 | enough cells to score |
| Gpsm3 (G-protein signalling modulator 3 (AGS3-like, C. elegans)) | 0.74 | 0 | 1.66 | enough cells to score |
| H2-M10.5 (histocompatibility 2, M region locus 10.5) | 2.3 | 2.03 | 1.84 | enough cells to score |
| Cabyr (calcium binding tyrosine phosphorylation regulated) | -0.77 | 1.47 | 1.52 | enough cells to score |
| Nxf7 (nuclear RNA export factor 7) | 0.8 | 1.82 | 1.66 | enough cells to score |
| Grn (granulin) | 0.33 | 1.72 | 1.57 | enough cells to score |
| Fermt2 (fermitin family member 2) | -0.86 | 1.27 | 1.07 | enough cells to score |
| Spi1 (Spi-1 proto-oncogene) | -2.23 (active) | 1.31 | 1.15 | enough cells to score |
| Cnmd (chondromodulin) | 0.63 | 1.54 | 1.52 | enough cells to score |
| Vcan (versican) | -0.8 | 1.39 | 1.26 | enough cells to score |
| Txnrd3 (thioredoxin reductase 3) | -0.9 | 1.41 | 1.36 | enough cells to score |
| Orc2 (origin recognition complex, subunit 2) | -0.19 | 1.59 | 1.22 | enough cells to score |
| Ceacam13 (CEA cell adhesion molecule 13) | 0.4 | 1.73 | 1.76 | enough cells to score |
